Assay results as given in patent US20210186973A1, “COMBINATION OF RIBOCICLIB AND DABRAFENIB FOR TREATING OR PREVENTING CANCER” (NOVARTIS AG, priority 2015, published 2021).
For at least one compound, name, drawing or mass did not settle the structure.

Test system: 6 B-Raf mutant colorectal cancer cell lines
Experiment: Cell proliferation over the panel of 6 cell lines
Assay type: cell-based
Conditions: single agent; all but one cell line (ODMS-23)
Experimental: The compounds were dissolved in 100% DMSO (Sigma, Catalog number D2650) at concentrations of 20 mM and stored at −20° C. until use. Compounds were arrayed in drug master plates (Greiner, Catalog number 788876) and serially diluted 3-fold (7 steps) at 2000× concentration.
Colorectal cancer cell lines used for this study were obtained, cultured and processed from commercial vendors ATCC, CellBank Australia, and HSRRB (Table 1). All cell line media were supplemented with 10% FBS (HyClone, Catalog number SH30071.03). […]
Cell lines were cultured in 37° C. and 5% CO2 incubator and expanded in T-75 flasks. In all cases cells were thawed from frozen stocks, expanded through ≥1 passage using 1:3 dilutions, counted and assessed for viability using a ViCell counter (Beckman-Coulter) prior to plating. […] All cell lines were determined to be free of mycoplasma contamination as determined by a PCR detection methodology performed at Idexx Radil (Columbia, Mo., USA) and correctly identified by detection of a panel of SNPs.
Images were analyzed after adapting previously described methods (Horn, Sandmann et al. 2011) and using the Bioconductor package EBImage in R (Pau, Fuchs et al. 2010). Objects in both channels, DAPI (for Hoechst/DNA) and FITC (for Caspase 3/7), were segmented separately by adaptive thresholding and counted. […]

CN(C)C(=O)c1cc2cnc(Nc3ccc(N4CCNCC4)cn3)nc2n1C1CCCC1 [LEE011, 7-Cyclopentyl-2-(5-piperazin-1-yl-pyridin-2-ylamino)-7H-pyrrolo[2,3-d]pyrimidine-6-carboxylic acid dimethylamide]
IC50s (in words): low micromolar
